Values of other authors in patent US12151062B2, “Compositions and devices to administer pharmaceutical compositions nasally” (BOARD OF REGENTS, THE UNIVERSITY OF TEXAS SYSTEM, priority 2016, dated 2024).

Conditions: chitosan nanosuspension vs donepezil suspension; rats

## COc1cc2c(cc1OC)C(=O)C(CC1CCN(Cc3ccccc3)CC1)C2 (centres unmarked) [Donepezil]
  bioavailability: significantly higher bioavailability
  maximum concentration in the brain: significantly higher
